Patent publication US10654915B2, “Antibodies useful in passive influenza immunization” (priority 2011, dated 2020)
Some of these results come from one statement about several compounds together.

B1: MAB53 (antibody, V domains shown)
VH: QVQLVQSGAEVRKPGSSVKVSCKVSGGIIRKYAINWVRQAPGQGLEWMGGIIAIFNTANYAQKFQGRVTITADESTSTVYMELSSLRSEDTALYYCARGMNYYSDYFDYWGQGSLVTVSP
VL: EIVLTQSPGTLSLSPGERATLSCRASQSVRSNNLAWYQHKPGQAPRLLIFGASSRATGIPDRFSGSGSGTDFTLTISRLEPEDFAVYYCQQYGSSPALTFGGGTKVEIK
modifications: CHAIN (1)...(120) MAB53 heavy chain sequence of variable domain; DOMAIN (31)...(35) CDR1; DOMAIN (50)...(66) CDR2; DOMAIN (99)...(110) CDR3; CHAIN (1)...(109) MAB53 light chain sequence; DOMAIN (24)...(35) CDR1; DOMAIN (51)...(57) CDR2; DOMAIN (90)...(98) CDR3
B2: MAB579 (antibody, V domains shown)
VH: QVQLVQSGAEVKKPGASVKVSCKTSGYTFTAYTIHWVRQAPGQRLEWMGWINAGNGHTKYSQRFKGRVTITRDTSARTTYMELRSLTSEDTALYFCARGPETYYYDKTNWLNSHPDEYFQHWGHGTQVTVSS
VL: DIQMTQSPSTLSASVGDRVTITCRASQTINNYLAWYQQKPGKAPKLLIYKASSLESGVPSRFSGSGSGTEFTLTISSLQPDDFATYYCQEYNNDSPLTFGGGTKVEIK
modifications: CHAIN (1)...(132) MAB579 heavy chain sequence of variable domain; DOMAIN (31)...(35) CDR1; DOMAIN (50)...(67) CDR2; DOMAIN (99)...(121) CDR3; CHAIN (1)...(108) MAB579 light chain sequence of variable domain; DOMAIN (24)...(34) CDR1; DOMAIN (50)...(57) CDR2; DOMAIN (89)...(98) CDR3

Assay: Pharmacokinetics in mice
Conditions: for corresponding half-life in humans: corresponding to the mouse half-life

Molecule | corresponding half-life in humans | half-life in mice [h]
B1 | 3-4 weeks | 170 to 336
B2 | 3-4 weeks | 170 to 336
